This passage reports binding results from patent US20090035319A1.

These are yes or no findings as the source states them, for the method shown. Some results given as binding are weak or reduced against the parent protein; the word gives no strength.

This assay has as its target T1, C3a Receptor polypeptide (SEQ ID NO:2) (human) (UniProt Q16581).
T1 sequence: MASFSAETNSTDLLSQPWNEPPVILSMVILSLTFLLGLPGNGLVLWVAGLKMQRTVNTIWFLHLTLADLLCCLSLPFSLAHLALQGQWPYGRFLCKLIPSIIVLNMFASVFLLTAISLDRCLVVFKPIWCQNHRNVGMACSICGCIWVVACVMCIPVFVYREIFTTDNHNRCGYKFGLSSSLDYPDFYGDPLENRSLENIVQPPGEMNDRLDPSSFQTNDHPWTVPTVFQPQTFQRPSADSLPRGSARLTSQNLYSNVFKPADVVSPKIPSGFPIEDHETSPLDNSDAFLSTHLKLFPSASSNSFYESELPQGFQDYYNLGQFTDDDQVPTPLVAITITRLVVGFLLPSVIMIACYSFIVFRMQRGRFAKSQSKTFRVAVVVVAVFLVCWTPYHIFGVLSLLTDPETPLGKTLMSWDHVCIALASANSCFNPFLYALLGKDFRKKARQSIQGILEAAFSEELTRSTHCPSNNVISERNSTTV
Briefly: phage display selection; no assay details or data reported.

B1: scFv D098G01 (scFv)
scFv: EVQLVQSGAEVRKPGASVKVSCKASGYSFTNYGITWVRQAPGQGLEWMGWISGYNGDTNYAQKLQGRVTMTTDTSTNTAYMELRSLRSDDTAIYYCTRDLPGLNWAYSYDYMDVWGRGTLVTVSSGGGGSGGGGSGGGGSAQAVLTQPSSLSASPGTSASLTCTLRSGINVGTYRIYWYQQKPGSPPHFLLRYKSDSDKQQGSGVPSRFSGSKDASANAGILLISGLQSDDEADYYCMIWHSSAWVFGGGTKVTVLG
On to B1, for which the binding entry is recorded as “binds”.
